# Reference: patent publication US11993582B2, “Crystalline forms of a LTA4H inhibitor” (Novartis AG, priority 2018, dated 2024)
# Assay: Corrosion of steel coupons by the salt
smiles,measurement,setting,value
"Cl.N[C@@H](CC(=O)O)Cn1nnc(-c2ccc(Oc3ncc(Cl)cc3F)cc2)n1 [HCl salt, (S)-3-amino-4-(5-(4-((5-chloro-3-fluoropyridin-2-yl)oxy)phenyl)-2H-tetrazol-2-yl)butanoic acid hydrochloride salt]",Corrosion,steel coupon #1.2767,strong corrosion
same,Corrosion,steel coupon #1.2803,moderate corrosion
